Results are given in words; binding and its absence hold for the method and conditions named. Binding seen in cells or lysates may run through a third protein.

Chains of the proteins cited; added tags and fusions are not shown. Lines headed by an entry give the natural chain unless they say otherwise; changes in a name come on top.
UniProt Q86VE9: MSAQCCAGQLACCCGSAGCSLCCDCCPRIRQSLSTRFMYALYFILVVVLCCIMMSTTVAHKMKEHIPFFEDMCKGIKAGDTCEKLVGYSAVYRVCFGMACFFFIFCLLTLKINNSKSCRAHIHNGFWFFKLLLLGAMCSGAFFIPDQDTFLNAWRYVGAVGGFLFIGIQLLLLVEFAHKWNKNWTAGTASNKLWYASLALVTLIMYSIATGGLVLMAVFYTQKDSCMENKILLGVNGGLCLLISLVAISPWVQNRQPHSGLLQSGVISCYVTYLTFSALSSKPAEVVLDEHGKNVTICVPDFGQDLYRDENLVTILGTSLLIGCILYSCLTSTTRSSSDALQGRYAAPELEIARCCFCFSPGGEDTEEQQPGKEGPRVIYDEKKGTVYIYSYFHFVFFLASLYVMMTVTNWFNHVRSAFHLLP
UniProt P03407: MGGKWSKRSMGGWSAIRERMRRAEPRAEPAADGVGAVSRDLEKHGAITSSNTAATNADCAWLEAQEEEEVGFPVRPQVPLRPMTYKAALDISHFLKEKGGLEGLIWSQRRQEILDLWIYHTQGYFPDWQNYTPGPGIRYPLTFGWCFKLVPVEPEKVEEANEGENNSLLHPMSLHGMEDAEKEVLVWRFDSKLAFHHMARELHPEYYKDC

This test deals with Ser5 K130R with a FLAG-tag (human) (UniProt Q86VE9). Briefly: co-IP; FLAG-tagged Ser5 K130R with Nef-HA or glycoMA-HA, or FLAG-tagged mSer5 / K131R with glycoGag-HA, co-expressed in HEK293T cells; pulled down by anti-FLAG, WB.

Regarding “HIV-1 SF2 Nef with an HA-tag (from UniProt P03407 1-210)”, the binding entry is given as “no binding”.

The record behind these values is publication PMC12530543.
